Assay results from PubChem BioAssay AID2685 (National Center for Advancing Translational Sciences (NCATS), 2010).
The list shows a part of the results. Further columns of the screen follow, without active or inactive calls. The list favours compounds with an active or inconclusive main result. The note in brackets gives the kind of curve behind each potency; many fits are weak.

Assay: qHTS Assay for Lipid Storage Modulators in Drosophila S3 Cells;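 for cell number change: cells counted by Cell Tracker Red CMTPX staining in the red channel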
Conditions: BODIPY lipid droplet fluorescence, 18-24 h; for cell number change: measured here: cell count max response, cells fed with added oleic acid
Procedure, shortened: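 Drosophila S3 cells got compounds at several concentrations plus oleic acid (400 uM solution). Laser-scanning cytometry with 488 nm excitation read lipid droplets at 500-530 nm and cells at 575-640 nm. Percent activity was relative to 20 uM Triacsin C.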

[1] = measured here: lipid fluorescence (Fed channel) AC50, cells fed with added oleic acid
[2] = measured here: cell number channel AC50, cells fed with added oleic acid

O=C(CN1CCCC1)Nc1cccc(Cl)c1
cell number change: 25.7%
AC50 [1]: 8.2 µM [rising, partial curve, poor fit]

COc1ccccc1NC(=S)N1CCCc2ccccc21
cell number change: 29.4%
AC50 [1]: 29.1 µM [rising, single point]

COc1cc2c(cc1NC(=O)CSc1nccn1C)oc1ccccc12
cell number change: -57.1%
AC50 [2]: 23.1 µM [falling, single point]
AC50 [1]: 0.092 µM [rising, full curve, poor fit]

C=CCN(c1ccc(Cl)cc1)S(=O)(=O)c1cccc(C(=O)OCC(=O)N(C)C)c1
cell number change: -24.1%
AC50 [2]: 0.116 µM [falling, full curve, poor fit]
AC50 [1]: 0.13 µM [falling, single point]

CCOc1ccc2nc(N(CCCN(C)C)C(=O)c3ccc4c(c3)CCCC4)sc2c1
cell number change: -1.05%

O=C(OCc1ccc(Cl)c(Cl)c1)c1cccnc1Cl
cell number change: -7.14%
AC50 [1]: 6.51 µM [falling, single point]

CSc1nc2c(c(=O)[nH]c(=O)n2C)n1Cc1ccccc1
cell number change: -18.6%
AC50 [1]: 29.1 µM [rising, single point]

Cc1ccc(S(=O)(=O)N2CCOCC2)cc1C(=O)OCC(=O)NCc1ccc2c(c1)OCO2
cell number change: -8.03%
AC50 [1]: 6.51 µM [rising, single point]

CC1CCC(NC(=O)C2CCN(c3nc4ccccc4s3)CC2)CC1 (centres undefined)
cell number change: 10.3%
AC50 [1]: 0.116 µM [rising, single point]

Cc1ccc(NC(=O)CSc2nc(-c3ccco3)nc3cc(=O)[nH]n23)c(Cl)c1
cell number change: -7.08%
AC50 [1]: 29.1 µM [falling, partial curve, poor fit]

CCCCn1nc(C(=O)O)ccc1=O
cell number change: 10.2%
AC50 [1]: 0.0651 µM [falling, full curve, poor fit]

O=C(CN1CCN(Cc2ccccc2)CC1)Nc1nnc(C(F)(F)F)s1
cell number change: 13.2%
AC50 [1]: 29.1 µM [rising, single point]

O=C1CC(N2CCN(c3nc4ccccc4s3)CC2)C(=O)N1Cc1cccs1 (centres undefined)
cell number change: 10.6%
AC50 [1]: 3.26 µM [rising, partial curve]

COc1ccccc1-c1cc(C(F)(F)F)nc(S(=O)(=O)CCCC(=O)O)n1
cell number change: -84.4%
AC50 [2]: 6.51 µM [rising, single point]
AC50 [1]: 29.1 µM [falling, single point]

NS(=O)(=O)c1ccc(CCNC(=O)CNC(=O)Cc2ccccc2)cc1
cell number change: 15.3%
AC50 [1]: 3.26 µM [rising, full curve]

COc1cccc(C2=CC(=O)C[C@H](c3ccc(F)cc3)C2)c1
cell number change: 3.84%

COc1ccc(C/C(C)=N/NC(=O)c2ccncc2)cc1
cell number change: 9.33%
AC50 [1]: 10.3 µM [falling, partial curve, poor fit]

O=C(Nc1ccc(S(=O)(=O)Nc2ccccc2)cc1)C1CC1
cell number change: -2.27%

Cc1cc(C)c(NC(=O)CSc2nnc(SCC(=O)Nc3c(C)cc(C)cc3C)n2N)c(C)c1
cell number change: 181%
AC50 [2]: 18.4 µM [rising, partial curve]
AC50 [1]: 6.51 µM [rising, single point]

CCCCCc1c(C)nc(Nc2ccccc2)[nH]c1=O
cell number change: -111%
AC50 [2]: 20.6 µM [falling, single point]
AC50 [1]: 29.1 µM [falling, single point]

O=C(NCc1ccccn1)c1ccc(S(=O)(=O)Nc2ccccc2F)cc1
cell number change: -7.08%
AC50 [1]: 18.4 µM [rising, partial curve]

COc1cccc(NC(=O)COC(=O)c2ccccc2C(=O)N(C)c2ccccc2)c1
cell number change: -4.71%
AC50 [1]: 0.13 µM [rising, partial curve, poor fit]

OCCCCNc1cccc2ccccc12
cell number change: 25%
AC50 [1]: 3.66 µM [rising, single point]

COc1ccc(-c2nc(C)ncc2N=Nc2ccccc2)cc1
cell number change: -80.3%
AC50 [2]: 18.4 µM [falling, single point]
AC50 [1]: 14.6 µM [falling, partial curve]

O=C(NCCNCCO)c1c(O)c2cccc3c2n(c1=O)CCC3
cell number change: -4.45%
AC50 [1]: 3.26 µM [falling, full curve]

O=C(COC(=O)c1ccccc1O)NC(=O)NCc1ccccc1
cell number change: -75%
AC50 [2]: 16.4 µM [falling, single point]

C/C=C(\C)CN1CCCC(CO)(Cc2ccccc2)C1 (centres undefined)
cell number change: -36.9%
AC50 [2]: 18.4 µM [falling, partial curve]

CC(C)(C)CN1CCNC[C@H]1Cc1ccc(O)cc1
cell number change: -30.2%
AC50 [2]: 29.1 µM [falling, single point]
AC50 [1]: 29.1 µM [falling, single point]

O=S(Cc1ccc(Cl)cc1)CC(O)(c1ccccc1)c1ccccc1 (centres undefined)
cell number change: -31.3%
AC50 [2]: 14.6 µM [falling, single point]
AC50 [1]: 20.6 µM [falling, single point]

COc1ccc(S(=O)(=O)N2CCC(C(=O)Nc3nccs3)CC2)cc1
cell number change: 53.5%
AC50 [2]: 29.1 µM [rising, single point]
AC50 [1]: 29.1 µM [rising, single point]

O=C(CSc1ncn(-c2ccccc2)n1)Nc1nc(-c2ccccc2)cs1
cell number change: -17.6%
AC50 [1]: 20.6 µM [falling, single point]

Cn1c2c(c(=O)[nH]c1=O)C(c1ccc(O)cc1)C1=C(N2)c2ccccc2C1=O (centres undefined)
cell number change: -32.2%
AC50 [2]: 0.146 µM [falling, full curve, poor fit]
AC50 [1]: 4.61 µM [falling, partial curve, poor fit]

COc1ccc(OCC(=O)Nc2ccc(N3CCN(C(=O)c4ccccc4)CC3)c(Cl)c2)cc1
cell number change: -50%
AC50 [2]: 29.1 µM [falling, single point]

CCC(C)NCCC(=O)Nc1ccc(Cl)c(S(=O)(=O)Nc2ccc(Cl)cc2)c1 (centres undefined)
cell number change: 46.5%
AC50 [2]: 16.4 µM [rising, single point]
AC50 [1]: 18.4 µM [rising, single point]

NS(=O)(=O)c1cccc(NS(=O)(=O)c2ccc(/C=C/C(=O)O)cc2)c1
cell number change: -12.2%
AC50 [2]: 6.51 µM [falling, single point]
AC50 [1]: 6.51 µM [falling, single point]

Cn1cc(C(=O)NCc2ccc(F)cc2)c(=O)c2cc(S(=O)(=O)N3CCCCC3)ccc21
AC50 [2]: 0.146 µM [rising, full curve, poor fit]
AC50 [1]: 0.13 µM [rising, full curve, poor fit]

CCN1N=C(c2cc(Cl)sc2Cl)CSC1=O
cell number change: -32.4%
AC50 [2]: 10.3 µM [falling, partial curve]
AC50 [1]: 13 µM [falling, partial curve]

Cc1cccc(OCCCC(=O)Nc2ccc3c(c2)OCO3)c1
cell number change: 6.84%
AC50 [1]: 14.6 µM [rising, partial curve, poor fit]

Cc1cccc(CN2C(=O)/C(=C\c3ccc(C(=O)NCCCN4CCN(C)CC4)cc3)Oc3ccccc32)c1
cell number change: -3.36%

COc1ccccc1CNC(=O)C(CCSC)NC(=O)C1CCC(C)CC1 (centres undefined)
cell number change: -7.45%
AC50 [1]: 29.1 µM [rising, single point]

Cc1onc(-c2ccccc2)c1C(=O)Nc1cccc2nsnc12
AC50 [2]: 0.651 µM [rising, single point]
AC50 [1]: 0.291 µM [rising, partial curve, poor fit]

COc1ccccc1NC(=O)NCCN1CCNC1=O
cell number change: -9.29%
AC50 [1]: 0.00461 µM [falling, full curve, poor fit]

O=C(O)c1cccc(S(=O)(=O)Nc2ccccc2Cl)c1
cell number change: -29.8%
AC50 [1]: 0.00517 µM [falling, full curve, poor fit]

CCN(CC(=O)Nc1c(F)cccc1F)C(=O)c1cccc(S(=O)(=O)N2CCc3ccccc3C2)c1
cell number change: 0.116%

CCOc1ccc(-c2nnc(Nc3ccc(OC)c(C(=O)N4CCCCC4)c3)c3ccccc23)cc1
cell number change: 3.75%
AC50 [1]: 0.164 µM [rising, full curve, poor fit]

FC(F)(F)c1nnc2ccc(N3CCOCC3)nn12
cell number change: 13.5%
AC50 [1]: 0.116 µM [rising, full curve, poor fit]

CC1CC(C)CN(S(=O)(=O)c2ccccc2[N+](=O)[O-])C1 (centres undefined)
cell number change: -4.13%
AC50 [2]: 0.0058 µM [falling, full curve]
AC50 [1]: 4.11 µM [falling, full curve]

CC(C)c1ccc(C(=O)N/N=C/c2cccc(Cl)c2Cl)cc1
cell number change: 14.4%

CC(C)(C)OC(=O)N1CCC(NC(=O)c2ncn(Cc3ccccc3)c2C(=O)NC2CCN(C(=O)OC(C)(C)C)CC2)CC1
cell number change: -47.8%
AC50 [2]: 20.6 µM [falling, single point]
AC50 [1]: 5.17 µM [falling, full curve]

COc1ccc(CN2CCN(CC3CC3)CC2CCO)c(C)c1C (centres undefined)
cell number change: -12.2%
AC50 [1]: 6.51 µM [rising, single point]

Cc1cc(C)nc(SCC(=O)OCC(=O)Nc2ccccc2)n1
cell number change: 1.3%
AC50 [1]: 0.651 µM [falling, partial curve, poor fit]

O=C(c1cc([N+](=O)[O-])ccc1Cl)N1CCN(Cc2ccc3c(c2)OCO3)CC1
cell number change: 14.2%
AC50 [1]: 2.31 µM [rising, partial curve, poor fit]

CCOC(=O)c1cnn(-c2c(Cc3ccccc3)c(C)nc3c(-c4ccccc4)c(C)nn23)c1N
cell number change: 15.7%

CC1CCC2C(=O)N(c3cccc(C(=O)Nc4ccccc4Cl)c3)C(=O)C2C1 (centres undefined)
cell number change: -8.91%
AC50 [2]: 0.651 µM [rising, single point]
AC50 [1]: 29.1 µM [falling, single point]

CCCc1nn2c(=O)cc(CSCC(=O)Nc3ccc(OC)cc3)nc2s1
cell number change: -8.36%

COC(=O)C1=C(C)NC(=O)CC1c1cc2c(cc1Br)OCO2 (centres undefined)
cell number change: -19.2%
